# Results deposited as PubChem BioAssay AID1224830 (NIAID, 2016).
# Assay: 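Genes whose knock-down alters the TNF-alpha reporter response to LPS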 (primary screen)
# Cell system: human THP-1 monocytic leukaemia cells, TNF dual-luciferase reporter clone, PMA-differentiated to macrophage-like cells
# Reagents: siRNA pool against human genes, 50 nM
# Timing: LPS for 4 h, given about 3 days after siRNA transfection
# Treatment: bacterial LPS (TLR4 ligand), 10 ng/ml
# Measured: 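Ratio of firefly to renilla light, scaled to the plate median and expressed as a robust z-score per replicate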
# Direction: TNF reporter robust z-score: higher = stronger TNF reporter response to LPS
# Call rule: 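a well is active when its z-score exceeds 2.8 or falls below -1.5; control wells carry no call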
# Shown is an unselected part of about 18,000 reagents tested. About 2,900 of them (16%) count as active. 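Calls are made per well; low scores hint the gene aids the LPS response, high scores that it dampens it.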 Repeated entries: four replicate wells of each siRNA pool.
gene symbol,TNF reporter robust z-score,Call
ZNF346,-0.28,inactive
ZNF346,0.47,inactive
ZNF346,-0.56,inactive
ZNF346,-0.02,inactive
ACOT4,-0.5,inactive
ACOT4,-1.17,inactive
ACOT4,-1.08,inactive
ACOT4,0.4,inactive
FOXD4,0.01,inactive
FOXD4,1.41,inactive
FOXD4,0.43,inactive
FOXD4,1.73,inactive
SNX7,1.09,inactive
SNX7,0.55,inactive
SNX7,1.46,inactive
SNX7,0.59,inactive
NPY1R,-0.07,inactive
NPY1R,-0.36,inactive
NPY1R,-0.94,inactive
NPY1R,-0.08,inactive

Not a retest: entries from further up.
gene symbol,TNF reporter robust z-score,Call
NPY1R,-0.36,inactive
NPY1R,-0.94,inactive

Further reagents follow:
gene symbol,TNF reporter robust z-score,Call
MYF5,-0.43,inactive
MYF5,2.07,inactive
MYF5,1.46,inactive
MYF5,-0.77,inactive
TRIP4,-0.56,inactive
TRIP4,-0.76,inactive
TRIP4,-0.19,inactive
TRIP4,-0.05,inactive
C17orf58,5.05,active
C17orf58,2.21,inactive
C17orf58,0.18,inactive
C17orf58,1.41,inactive
ASS1,1.42,inactive
ASS1,1.31,inactive
ASS1,0.73,inactive
ASS1,1.35,inactive
PUS7,-1.75,active
PUS7,-1.17,inactive
PUS7,-1.05,inactive
PUS7,-1.47,inactive
RBL1,-0.42,inactive
RBL1,-0.54,inactive
RBL1,-1.36,inactive
RBL1,1.5,inactive
LRRD1,2.19,inactive
LRRD1,2.54,inactive
LRRD1,-0.73,inactive
LRRD1,-0.85,inactive
